# Test results as given in patent US12528809B2, “Crystalline forms of gepotidacin” (GLAXOSMITHKLINE INTELLECTUAL PROPERTY DEVELOPMENT LIMITED, priority 2020, dated 2026).
# Assays:
# [1] = Polymorphs and water activity: forms observed in water/IPA mixtures; assay type: physicochemical; conditions: w/w water content in IPA, estimated using solubility and KF data
# [2] = Physical form stability / conversion to Form 1; assay type: physicochemical
# Method: The suspension was heated with a heat gun to dissolve most of the solids, and then left to slowly cool to room temperature. The resultant crystals were filtered and analysed by DSC, TGA, and XRPD.
# Amorphous gepotidacin mesylate can be generated via lyophilization. Form 1 (150 mg) was dissolved MeCN/water (80/20 v/v; 1 mL). A clarifying filtration was performed and the filtrate was added to a 20 mL vial. The solution was frozen under liquid nitrogen and lyophilized for 4 hours.
water content boundaries within which the form was observed ([1]; 20-25° C.) [% w/w],water content boundaries within which the form was observed ([1]; 61° C.) [% w/w],"time to convert to Form 1 ([2]; 5% aqueous IPA, 20° C.) [h]",conversion to Form 1 ([2]; in the suspension (3% Aq v/v IPA) and upon isolation),SMILES
< 1.147,< 2.694,,,CS(=O)(=O)O.O.O.O=c1ccc2ncc(=O)n3c2n1C[C@H]3CN1CCC(NCc2cc3c(cn2)OCCC3)CC1 [Gepotidacin mesylate anhydrate (Form 2)]
,,≤ 3,gradually convert to Form 1,CC(C)O.CS(=O)(=O)O.O.O.O=c1ccc2ncc(=O)n3c2n1C[C@H]3CN1CCC(NCc2cc3c(cn2)OCCC3)CC1
